No constants are given. Whether binding was seen depends on the method and setting. In cells and extracts the contact can be indirect. Some entries that bind do so weakly or less than the wild type. Tags and fused reporters may be left off the sequences shown.

By UniProt entry, the sequences of proteins in these tests, tags left out.
UniProt Q9UBN7: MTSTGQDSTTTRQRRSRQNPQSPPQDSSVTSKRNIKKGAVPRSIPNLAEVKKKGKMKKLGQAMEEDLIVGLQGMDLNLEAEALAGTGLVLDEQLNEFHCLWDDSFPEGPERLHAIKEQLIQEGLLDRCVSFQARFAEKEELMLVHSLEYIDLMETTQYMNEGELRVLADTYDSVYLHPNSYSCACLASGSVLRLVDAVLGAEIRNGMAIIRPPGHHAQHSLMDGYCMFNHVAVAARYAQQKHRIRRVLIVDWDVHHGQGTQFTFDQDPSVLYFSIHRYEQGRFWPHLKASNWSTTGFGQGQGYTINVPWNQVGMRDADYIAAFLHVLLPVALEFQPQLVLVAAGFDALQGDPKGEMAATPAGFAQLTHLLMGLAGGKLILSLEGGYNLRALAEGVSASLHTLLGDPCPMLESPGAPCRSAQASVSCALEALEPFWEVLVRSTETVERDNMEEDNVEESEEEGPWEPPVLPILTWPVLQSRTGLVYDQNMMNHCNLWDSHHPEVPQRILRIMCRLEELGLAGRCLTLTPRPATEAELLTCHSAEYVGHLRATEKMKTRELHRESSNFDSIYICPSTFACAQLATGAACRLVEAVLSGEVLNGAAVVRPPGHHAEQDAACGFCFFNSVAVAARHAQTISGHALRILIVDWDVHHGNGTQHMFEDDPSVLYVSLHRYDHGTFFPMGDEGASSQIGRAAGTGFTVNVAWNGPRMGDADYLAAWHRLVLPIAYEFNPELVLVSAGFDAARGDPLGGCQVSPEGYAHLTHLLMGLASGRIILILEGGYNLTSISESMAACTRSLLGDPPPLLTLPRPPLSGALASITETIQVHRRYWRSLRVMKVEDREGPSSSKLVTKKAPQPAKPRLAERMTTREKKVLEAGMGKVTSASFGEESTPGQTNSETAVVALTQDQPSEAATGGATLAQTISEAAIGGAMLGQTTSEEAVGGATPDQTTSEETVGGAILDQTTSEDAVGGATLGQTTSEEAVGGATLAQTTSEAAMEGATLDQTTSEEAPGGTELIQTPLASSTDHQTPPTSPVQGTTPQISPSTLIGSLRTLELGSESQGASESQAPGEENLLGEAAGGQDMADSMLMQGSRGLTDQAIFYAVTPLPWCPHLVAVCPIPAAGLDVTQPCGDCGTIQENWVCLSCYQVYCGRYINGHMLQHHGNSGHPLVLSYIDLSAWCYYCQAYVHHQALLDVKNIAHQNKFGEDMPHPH

The target in the experiment is T1, FLAG-SAE2, wild type, doxycycline-inducible in U2OS cells (human) (UniProt Q9UBT2).
T1 sequence: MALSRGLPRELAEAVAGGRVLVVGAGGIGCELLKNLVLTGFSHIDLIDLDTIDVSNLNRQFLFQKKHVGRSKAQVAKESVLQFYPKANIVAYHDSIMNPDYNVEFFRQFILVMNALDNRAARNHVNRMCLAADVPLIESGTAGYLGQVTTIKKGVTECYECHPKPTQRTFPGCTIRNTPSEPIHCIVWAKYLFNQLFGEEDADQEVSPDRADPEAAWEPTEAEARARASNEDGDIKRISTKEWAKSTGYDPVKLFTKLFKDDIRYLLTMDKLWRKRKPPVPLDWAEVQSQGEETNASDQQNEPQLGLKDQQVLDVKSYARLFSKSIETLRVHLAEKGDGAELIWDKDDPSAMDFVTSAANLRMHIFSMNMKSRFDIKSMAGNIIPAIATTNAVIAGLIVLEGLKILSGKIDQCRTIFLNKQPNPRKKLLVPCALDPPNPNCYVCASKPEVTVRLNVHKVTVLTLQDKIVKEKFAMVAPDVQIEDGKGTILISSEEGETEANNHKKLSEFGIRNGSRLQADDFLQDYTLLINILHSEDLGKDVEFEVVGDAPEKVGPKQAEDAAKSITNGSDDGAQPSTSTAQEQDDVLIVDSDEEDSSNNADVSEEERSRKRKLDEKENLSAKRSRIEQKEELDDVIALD
Description: co-IP; anti-FLAG (M2) agarose from RIPA lysates of U2OS cells expressing FLAG-SAE2, blot for HDAC6; asynchronous cells or 16 h nocodazole and mitotic shake-off.

Consider “HDAC6, endogenous (from UniProt Q9UBN7 1-1215) (enzyme)”, for which the binding entry is on record as “binds”.

The record behind these values is publication PMC12489036.
